In the assay the target is T1, 4-Met substituted E. coli Cir (colicin Ia receptor), the paper's wildtype (WT) Cir (E. coli) (UniProt P17315).
T1 sequence: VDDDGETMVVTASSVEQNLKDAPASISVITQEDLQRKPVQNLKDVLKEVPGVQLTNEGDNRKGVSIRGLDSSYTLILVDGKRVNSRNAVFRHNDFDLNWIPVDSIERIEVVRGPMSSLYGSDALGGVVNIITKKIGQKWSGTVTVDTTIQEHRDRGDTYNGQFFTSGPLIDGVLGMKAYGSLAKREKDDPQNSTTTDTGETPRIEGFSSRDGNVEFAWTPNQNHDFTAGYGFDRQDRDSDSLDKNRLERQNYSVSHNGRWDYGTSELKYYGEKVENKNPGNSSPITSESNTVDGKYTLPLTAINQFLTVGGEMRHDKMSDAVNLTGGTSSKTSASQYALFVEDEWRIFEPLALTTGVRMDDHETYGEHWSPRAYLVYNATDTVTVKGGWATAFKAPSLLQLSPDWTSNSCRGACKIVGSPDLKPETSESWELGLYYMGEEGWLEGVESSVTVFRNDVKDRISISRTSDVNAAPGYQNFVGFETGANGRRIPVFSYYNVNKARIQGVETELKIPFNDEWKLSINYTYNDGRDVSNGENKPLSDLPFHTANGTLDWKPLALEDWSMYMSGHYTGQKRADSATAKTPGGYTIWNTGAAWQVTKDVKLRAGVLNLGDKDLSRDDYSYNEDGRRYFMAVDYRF
Kind of assay: SEC; refolded Colicin Ia R Domain added at four-fold excess to Cir in NAPol, 30 min at 4 C, complex purified on Superdex 200 Increase 10/300 GL in PBS pH 7.5, peak fractions analysed by SDS-PAGE; both purified.

This passage reports binding results from PMC12511343, “Structural insights into Cir-mediated killing by the antimicrobial protein Microcin V” (Communications Biology, 2025).

Results are given in words; binding and its absence hold for the method and conditions named. A result given as binding can be weak or reduced; the word gives no strength.

As for “receptor binding domain (R Domain) of Colicin Ia (domain or fragment)”, the binding entry is “binds”.
